1 sequence from patent publication US10894817B2 (priority 2016, dated 2021) can be followed below.

Where a sequence shows no end group, the ends are not given.

The nature of the data set: general procedure: Fmoc solid-phase peptide synthesis; RAPP AM-Rink Amide resin (H40023 Polystyrene AM RAM, Rapp polymere GmbH); DIC/Oxyma pure; PyBOP/DIEA for side-chain extension. As to conditions: whole synthesis.

As to IVLSLDVPIGLLQILLEQEKQEKEKQQAKTNAQILAQV, the “final HPLC purity” value (analytical reversed-phase HPLC) is reported as greater than 99%. Moreover, the isolated yield (purified yield) was 15-20%.
